Results deposited as PubChem BioAssay AID504786 (Drosophila RNAi Screening Center, 2011).
In all, the deposit lists about 21,000 reagents; below is a random part of those that have a named target and a result. 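Primary screen; positive scores mean lost reporter signal, so the sign may be inverted from the usual convention.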

- Test: 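Knock-downs reducing HIF reporter induction by the iron chelator DFO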 (primary screen)
- Cell system: Drosophila S2 cells with a stable HIF luciferase reporter
- Knock-down reagent: long dsRNA against Drosophila genes, about 0.2 µg dsRNA per well of a 384-well plate
- Time to read-out: three days of knock-down, then 20 h of DFO before reading
- Conditions: desferrioxamine (DFO) at 100 µM, an iron chelator that mimics hypoxia, for 20 h
- Measured: 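Firefly luciferase driven by the mouse ldh-a hypoxia-response element, measured after 20 h of 100 µM DFO; z-scores per plate, higher means more signal lost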
- Scale: z-score: higher = stronger loss of HIF reporter signal

Sgs7 (Salivary gland secretion 7) [DRSC11281]
- z-score, replicate 1: -0.3
- z-score, replicate 2: 1.2

Nt5c (5' nucleotidase C) [DRSC06711]
- z-score, replicate 1: -0.4
- z-score, replicate 2: -0.3

goe (gone early) [DRSC19345]
- z-score, replicate 1: -0.4
- z-score, replicate 2: -1

CG13326 [DRSC06363]
- z-score, replicate 1: -0.2
- z-score, replicate 2: 0

CG13133 [DRSC02230]
- z-score, replicate 1: -0.2
- z-score, replicate 2: -0.6

Syn (Synapsin) [DRSC16876]
- z-score, replicate 1: -0.4
- z-score, replicate 2: -0.9

CG15012 [DRSC08465]
- z-score, replicate 1: -0.4
- z-score, replicate 2: -1

prod (proliferation disrupter) [DRSC07667]
- z-score, replicate 1: 1.5
- z-score, replicate 2: 2.1

CG14683 [DRSC17035]
- z-score, replicate 1: -0.1
- z-score, replicate 2: 0.2

CG13724 [DRSC10053]
- z-score, replicate 1: 0
- z-score, replicate 2: 0.4

frm (farmer) [DRSC09753]
- z-score, replicate 1: -0.3
- z-score, replicate 2: -0.3

srp (serpent) [DRSC13125]
- z-score, replicate 1: -0.2
- z-score, replicate 2: -0.1

srp (serpent) [DRSC17068]
- z-score, replicate 1: 2.1
- z-score, replicate 2: 2.7

IntS14 (Integrator 14) [DRSC00668]
- z-score, replicate 1: -0.3
- z-score, replicate 2: -0.4

6 entries from above, sorted by “z-score, replicate 1”, low to high.
Syn (Synapsin) [DRSC16876]
- z-score, replicate 1: -0.4
- z-score, replicate 2: -0.9

CG15012 [DRSC08465]
- z-score, replicate 1: -0.4
- z-score, replicate 2: -1

CG13133 [DRSC02230]
- z-score, replicate 1: -0.2
- z-score, replicate 2: -0.6

CG14683 [DRSC17035]
- z-score, replicate 1: -0.1
- z-score, replicate 2: 0.2

CG13724 [DRSC10053]
- z-score, replicate 1: 0
- z-score, replicate 2: 0.4

prod (proliferation disrupter) [DRSC07667]
- z-score, replicate 1: 1.5
- z-score, replicate 2: 2.1

Next reagents follow.
ATPsynCF6 (ATP synthase, coupling factor 6) [DRSC14092]
- z-score, replicate 1: 1.5
- z-score, replicate 2: -0.1

Gem3 (Gemin 3) [DRSC11144]
- z-score, replicate 1: -0.2
- z-score, replicate 2: -0.1

CG10589 [DRSC11629]
- z-score, replicate 1: 0
- z-score, replicate 2: -0.2

Mpcp1 [DRSC07337]
- z-score, replicate 1: -0.3
- z-score, replicate 2: -0.3

Myo28B1 (Myosin 28B1) [DRSC03375]
- z-score, replicate 1: -0.1
- z-score, replicate 2: -0.2

dpr20 (defective proboscis extension response 20) [DRSC08265]
- z-score, replicate 1: -0.3
- z-score, replicate 2: 0

Capr (Caprin) [DRSC10346]
- z-score, replicate 1: -0.4
- z-score, replicate 2: -1

eEF1alpha1 (eukaryotic translation elongation factor 1 alpha 1) [DRSC07421]
- z-score, replicate 1: 4.3
- z-score, replicate 2: 3.5

xit (xiantuan) [DRSC18364]
- z-score, replicate 1: -0.3
- z-score, replicate 2: -0.2

Spt7 [DRSC19997]
- z-score, replicate 1: 0.5
- z-score, replicate 2: -0.1

CG2790 [DRSC04045]
- z-score, replicate 1: -0.1
- z-score, replicate 2: -0.1

Cdc23 (Cell division cycle 23) [DRSC02708]
- z-score, replicate 1: 0.3
- z-score, replicate 2: 0.2

Dpck (Dephospho-CoA kinase) [DRSC12575]
- z-score, replicate 1: -0.1
- z-score, replicate 2: -0.5

Npc2c (Niemann-Pick type C-2c) [DRSC15523]
- z-score, replicate 1: -0.3
- z-score, replicate 2: -0.5

CG2145 [DRSC19835]
- z-score, replicate 1: -0.3
- z-score, replicate 2: -0.5

CG11825 [DRSC06090]
- z-score, replicate 1: -0.2
- z-score, replicate 2: -0.3

Acbp5 (Acyl-CoA binding protein 5) [DRSC10548]
- z-score, replicate 1: -0.4
- z-score, replicate 2: -0.3

CG33270 [DRSC10584]
- z-score, replicate 1: -0.2
- z-score, replicate 2: -0.5

RpS4 (Ribosomal protein S4) [DRSC11272]
- z-score, replicate 1: 7.7
- z-score, replicate 2: 5.2

CAH5 (Carbonic anhydrase 5) [DRSC15372]
- z-score, replicate 1: 0
- z-score, replicate 2: 0.1

Tango11 (Transport and Golgi organization 11) [DRSC03890]
- z-score, replicate 1: -0.1
- z-score, replicate 2: -0.4

Tango11 (Transport and Golgi organization 11) [DRSC03892]
- z-score, replicate 1: 0.4
- z-score, replicate 2: 0.5

Hr51 (Hormone receptor 51) [DRSC06627]
- z-score, replicate 1: -0.2
- z-score, replicate 2: -0.3

CG10431 [DRSC02055]
- z-score, replicate 1: -0.3
- z-score, replicate 2: -0.6

CG42724 [DRSC12567]
- z-score, replicate 1: 0
- z-score, replicate 2: -0.1

CG30203 [DRSC06690]
- z-score, replicate 1: 0.1
- z-score, replicate 2: -0.1
